Experimental data: article PMC12752606, “METTL10‐Mediated PIAS3 Methylation Links Purine Metabolism to Gastric Cancer Progression” (Advanced Science, 2025)

Protein sequences, listed by entry. Tags and fused reporters are not part of them.
UniProt O75030: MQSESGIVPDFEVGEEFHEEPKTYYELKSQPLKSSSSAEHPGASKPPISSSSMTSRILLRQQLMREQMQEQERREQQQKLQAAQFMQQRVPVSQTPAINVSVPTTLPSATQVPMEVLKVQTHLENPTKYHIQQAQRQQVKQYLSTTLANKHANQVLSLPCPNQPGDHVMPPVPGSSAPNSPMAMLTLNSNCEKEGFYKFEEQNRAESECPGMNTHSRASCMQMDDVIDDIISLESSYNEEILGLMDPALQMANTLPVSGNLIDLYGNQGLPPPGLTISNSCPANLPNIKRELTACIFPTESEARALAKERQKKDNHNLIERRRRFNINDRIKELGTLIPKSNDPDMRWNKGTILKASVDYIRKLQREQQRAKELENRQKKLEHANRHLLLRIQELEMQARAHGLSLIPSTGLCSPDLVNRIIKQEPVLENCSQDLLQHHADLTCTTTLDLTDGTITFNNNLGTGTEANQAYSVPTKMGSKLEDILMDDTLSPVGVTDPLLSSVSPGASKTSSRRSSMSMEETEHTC
UniProt P78317: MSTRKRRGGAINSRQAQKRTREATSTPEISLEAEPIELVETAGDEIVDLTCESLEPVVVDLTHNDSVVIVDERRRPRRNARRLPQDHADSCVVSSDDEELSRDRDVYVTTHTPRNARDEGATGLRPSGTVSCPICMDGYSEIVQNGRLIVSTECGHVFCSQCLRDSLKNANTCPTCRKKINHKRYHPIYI

Target: Flag-MITF (UniProt O75030)
Assay: affinity purification with mass spectrometry; HEK293T transfected with Flag-tagged MITF and HA-vector or HA-METTL10, with the proteasome inhibitor MG132

RNF4 (from UniProt P78317 1-190) (enzyme)
binding: binds

Results are given in words; binding and its absence hold for the method and conditions named. Binding seen in cells or lysates may run through a third protein. A yes stands for co-enrichment or nearness to the bait. Other partners may have been found.
